Results as given in patent publication US8979831B2 (priority 2008, dated 2015).
Where “and” joins values, the source holds several entries; their conditions need not be identical. Equal values may be shown once. Read-outs that look alike come from different tables or passages of the source. The source gives many values for each of these; only a part stands here.

Tested on: porcine liver samples
Settings: for Temp: 100 microliters alone

`CC(=O)OC(C)=O` [Acetic Anhydride] was tested, and the pH (200 microliters alone, 0:00 min) was 5.92 and 7.42 and 6.35 and 6.28, the pH (200 microliters alone, 0:15 min) was 5.30 and 3.65 and 3.56 and 5.64 and 6.14 and the pH (200 microliters alone, 0:30 min) was 5.17 and 3.54 and 3.41 and 5.62 and 5.21. The pH (200 microliters alone, 0:45 min) was 5.01 and 3.50 and 3.28 and 5.50 and 4.91, the pH (200 microliters alone, 1:15 min) was 4.80 and 3.27 and 3.16 and 5.23 and 4.78 and the pH (200 microliters alone, 1:30 min) was 4.68 and 3.20 and 3.07 and 5.01 and 4.72. The pH (200 microliters alone, 1:45 min) was 4.56 and 3.12 and 3.03 and 4.64 and 4.66, the pH (200 microliters alone, 2:00 min) was 4.51 and 3.09 and 2.95 and 4.49 and 5.44 and the pH (200 microliters alone, 2:15 min) was 4.51 and 3.03 and 2.92 and 4.39 and 4.45. The pH (200 microliters alone, 2:30 min) was 4.45 and 2.96 and 2.89 and 4.33 and 4.20, the pH (200 microliters alone, 2:45 min) was 4.39 and 2.92 and 2.85 and 4.23 and 4.13 and the pH (200 microliters alone, 3:00 min) was 4.33 and 2.90 and 2.82 and 4.17 and 4.06. The pH (200 microliters alone, 3:15 min) was 4.29 and 2.88 and 2.78 and 4.09 and 4.02, the pH (200 microliters alone, 3:30 min) was 4.26 and 2.84 and 2.75 and 4.07 and 3.99 and the pH (200 microliters alone, 3:45 min) was 4.19 and 2.81 and 2.69 and 4.01 and 3.95. For the same molecule, the pH (200 microliters alone, 4:00 min) was 4.16 and 2.78 and 2.69 and 3.98 and 3.93, the pH (200 microliters alone, 4:15 min) was 4.13 and 2.75 and 2.68 and 3.93 and 3.90 and the pH (200 microliters alone, 4:30 min) was 4.11 and 2.74 and 2.66 and 3.90 and 3.89. For the same molecule, the pH (200 microliters alone, 4:45 min) was 4.08 and 2.72 and 2.63 and 3.86 and 3.87, the pH (200 microliters alone, 5:00 min) was 4.07 and 2.70 and 2.93 and 3.82 and 3.86 and the pH (300 microliters alone, 0:00 min) was 5.39 and 6.56 and 6.26 and 5.47 and 5.53. The pH (300 microliters alone, 0:15 min) was 3.92 and 5.16 and 3.67 and 3.76 and 4.63, the pH (300 microliters alone, 0:30 min) was 3.76 and 4.68 and 3.42 and 3.58 and 4.42 and the pH (300 microliters alone, 0:45 min) was 3.74 and 4.42 and 3.3 and 3.47 and 4.36. The pH (300 microliters alone, 1:00 min) was 3.72 and 4.33 and 3.23 and 3.4 and 4.3, the pH (300 microliters alone, 1:15 min) was 3.72 and 4.25 and 3.14 and 3.34 and 4.23 and the pH (300 microliters alone, 1:30 min) was 3.72 and 4.14 and 3.08 and 3.3 and 4.16. For the same molecule, the pH (300 microliters alone, 1:45 min) was 3.72 and 4.06 and 2.96 and 3.26 and 4.11, the pH (300 microliters alone, 2:00 min) was 3.72 and 3.99 and 2.93 and 3.19 and 4.05 and the pH (300 microliters alone, 2:15 min) was 3.72 and 3.91 and 2.87 and 3.15 and 4. The pH (300 microliters alone, 2:30 min) was 3.72 and 3.83 and 2.84 and 3.11 and 3.96, the pH (300 microliters alone, 2:45 min) was 3.71 and 3.76 and 2.78 and 3.07 and 3.9 and the pH (300 microliters alone, 3:00 min) was 3.68 and 3.75 and 2.75 and 3 and 3.87. The pH (300 microliters alone, 3:15 min) was 3.66 and 3.75 and 2.67 and 2.96 and 3.8, the pH (300 microliters alone, 3:30 min) was 3.64 and 3.7 and 2.64 and 2.94 and 3.78 and the pH (300 microliters alone, 3:45 min) was 3.61 and 3.63 and 2.63 and 2.89 and 3.74. For the same molecule, the pH (300 microliters alone, 4:00 min) was 3.6 and 3.62 and 2.59 and 2.85 and 3.72, the pH (300 microliters alone, 4:15 min) was 3.58 and 2.55 and 2.83 and 3.68 and the pH (300 microliters alone, 4:30 min) was 3.57 and 3.55 and 2.52 and 2.8 and 3.66. For the same molecule, the pH (300 microliters alone, 4:45 min) was 3.54 and 3.52 and 2.48 and 2.77 and 3.62 and 3.46, the pH (300 microliters alone, 5:00 min) was 3.52 and 3.48 and 2.47 and 2.74 and 3.6 and 3.45 and the pH (500 microliters alone, 0:00 min) was 5.5 and 6.57 and 5.6 and 5.7 and 6.32. The pH (500 microliters alone, 0:15 min) was 5.4 and 6.45 and 3.78 and 5.6 and 6.25, the pH (500 microliters alone, 0:30 min) was 5.27 and 6.3 and 3.62 and 5.61 and 4.4 and the pH (500 microliters alone, 0:45 min) was 5.11 and 6.2 and 3.45 and 5.46 and 3.9. For the same molecule, the pH (500 microliters alone, 1:00 min) was 5 and 6.22 and 3.36 and 5.39 and 3.69, the pH (500 microliters alone, 1:15 min) was 4.84 and 6.21 and 3.34 and 5.2 and 3.68 and the pH (500 microliters alone, 1:30 min) was 4.75 and 6.11 and 3.24 and 4.96 and 3.61. The pH (500 microliters alone, 1:45 min) was 4.61 and 6.11 and 3.21 and 4.82 and 3.6, the pH (500 microliters alone, 2:00 min) was 4.54 and 6.04 and 3.13 and 4.67 and 3.6 and the pH (500 microliters alone, 2:15 min) was 4.61 and 6.02 and 3.09 and 4.55 and 3.6. The pH (500 microliters alone, 2:30 min) was 4.54 and 5.95 and 3.06 and 4.45 and 3.6, the pH (500 microliters alone, 2:45 min) was 4.48 and 5.89 and 3.01 and 4.3 and 3.6 and the pH (500 microliters alone, 3:00 min) was 4.4 and 5.87 and 2.98 and 4.21 and 3.55. The pH (500 microliters alone, 3:15 min) was 4.36 and 5.82 and 2.95 and 4.16 and 3.55, the pH (500 microliters alone, 3:30 min) was 4.32 and 5.75 and 2.92 and 4.13 and 3.52 and the pH (500 microliters alone, 3:45 min) was 4.21 and 5.67 and 2.91 and 4.05 and 3.49. The pH (500 microliters alone, 4:00 min) was 4.18 and 5.65 and 2.88 and 4.03 and 3.47, the pH (500 microliters alone, 4:15 min) was 4.15 and 5.55 and 2.87 and 3.99 and 3.45 and the pH (500 microliters alone, 4:30 min) was 4.13 and 5.5 and 2.85 and 3.95 and 3.45. The pH (500 microliters alone, 4:45 min) was 4.1 and 5.41 and 2.84 and 3.92 and 3.43 and the pH (500 microliters alone, 5:00 min) was 4.08 and 5.33 and 2.84 and 3.9 and 3.42.

`CC(=O)Cl` [Acetyl Chloride] was tested, and the Temp (0:00 min) was 20.5 C. and 19.7 C. and 18.8 C. and 17.4 C, the Temp (0:15 min) was 34.2 C. and 30.2 C. and 26.3 C. and 23.6 C and the Temp (0:30 min) was 30.1 C. and 27.4 C. and 24 C. and 23.2 C. For the same molecule, the Temp (0:45 min) was 28.5 C. and 25.1 C. and 23.7 C. and 23 C, the Temp (1:15 min) was 23.6 C. and 23.1 C. and 22.2 C and the Temp (1:30 min) was 25.2 C. and 22.2 C. and 22.7 C. and 21.7 C. For the same molecule, the Temp (1:45 min) was 25.1 C. and 22.2 C. and 22.6 C. and 21.5 C, the Temp (2:00 min) was 24.5 C. and 21.9 C. and 22.2 C. and 21.3 C and the Temp (2:15 min) was 24 C. and 21.6 C. and 22 C. and 21.1 C. The Temp (2:30 min) was 23.6 C. and 21.5 C. and 21.7 C. and 20.9 C, the Temp (2:45 min) was 23.3 C. and 21.5 C. and 20.8 C and the Temp (3:00 min) was 22.9 C. and 21.5 C. and 21.3 C. and 20.8 C. For the same molecule, the Temp (3:15 min) was 22.6 C. and 21.4 C. and 21.2 C. and 20.7 C, the Temp (3:30 min) was 22.4 C. and 21.2 C. and 21.1 C. and 20.6 C and the Temp (3:45 min) was 22.2 C. and 21.1 C. and 21 C. and 20.6 C. For the same molecule, the Temp (4:00 min) was 22 C. and 20.9 C. and 20.5 C, the Temp (4:15 min) was 21.8 C. and 20.9 C. and 20.8 C. and 20.4 C and the Temp (4:45 min) was 21.5 C. and 20.7 C. and 20.6 C. and 20.3 C. For the same molecule, the Temp (5:00 min) was 21.4 C. and 20.7 C. and 20.5 C. and 20.3 C.
